Results from PubChem BioAssay AID1347076 (National Center for Advancing Translational Sciences (NCATS), 2019).
The campaign covered roughly 400,000 compounds. About 13,000 (3.2%) were called active. Inconclusive means that the source gave no clear call. Such entries were picked first, then a sample of the others. The call rests on the fitted dose curve; in most records, active means well fitted cell-killing curve with a large enough effect; inconclusive means small, poorly fitted or top-dose-only effect, or effect the other way; inactive means flat fitted curve, though single readings scatter. Potencies of inconclusive entries are doubtful fits and often do not repeat. Some compounds were tested as several samples or in several runs, with calls that do not always agree.

assay: qHTS assay for MDR1-selective chemotherapeutics: Primary screen using the drug-selected MDR subline cells KB-V1; conditions: KB-V1 MDR cells viability, CellTiter-Glo, 72 h; activity change, negative = cytotoxicity: at 46.1 µM (top of the series); further: nearly all actives have a fitted effect of over 60% in size
Summary of the method: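 Cells of the MDR subline KB-V1 are plated, dosed with compound at multiple concentrations, and incubated 72 h at 37 degrees C; CellTiter-Glo is then added and luminescence read after 10 min.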
On the % scale 0 is the no-effect control and ±100 the full control effect; potency means the concentration at half of the fitted maximal effect.

Which Potency does the source give for `O=C(c1cccc(C(=O)N2CCN(c3ccccc3)CC2)c1)N1CCN(c2ccccc2)CC1` here?
The Potency was inconclusive: 6.51 µM [cytotoxic, partial curve, poor fit].

Which “activity change, negative = cytotoxicity” value does the source give for `O=C(NCc1ccco1)C1CCCN(S(=O)(=O)c2ccc(Br)cc2)C1` (centres undefined) here?
The value was inactive: -10.3%.

Which Potency does the source give for `Cc1ccc(N(C(C)C(=O)Nc2cc(Cl)ccc2Oc2ccccc2)S(C)(=O)=O)cc1` (centres undefined) here?
The Potency was inconclusive: 18.4 µM [cytotoxic, single point].

Which Potency does the source give for `CCC(=O)NC(=S)Nc1cccc(C(C)=O)c1` here?
Its Potency is inconclusive: 18.4 µM [rising, partial curve, poor fit].

For `COc1ccc(-c2noc(COC(=O)c3ccco3)n2)cc1OC`, which “activity change, negative = cytotoxicity” value is on record?
Its value is inactive: 13.3%.

With `O=C(O)CSCC(=O)N1CCN(c2nc3cc(Cl)ccc3s2)CC1` as the compound, how does the “activity change, negative = cytotoxicity” value read?
The value was inactive: 12.6%.

Which Potency does the source give for `CC1(c2ccccc2)NC(=O)N(Cc2ccc([N+](=O)[O-])cc2)C1=O` (centres undefined) here?
The Potency was inconclusive: 18.4 µM [cytotoxic, partial curve].

Which Potency does the source give for `Cc1cc(C)c(NC(=O)CN2CCOCCOCCOCCOCC2)c(C)c1` here?
The Potency was inconclusive: 7.31 µM [cytotoxic, partial curve, poor fit].

With `CCOCCCNC(=O)C(NC(=O)Cc1cccs1)c1ccc(C)cc1` (centres undefined) as the compound, how does the Potency read?
Its Potency is inconclusive: 29.1 µM [cytotoxic, single point].

Which Potency does the source give for `COC(=O)Cc1ccc(NC(=O)C(c2ccccc2)c2ccccc2)cc1` here?
The Potency was active: 8.2 µM.

With `COc1ccc(CCNC(=O)c2c(C)oc3ncn(CC(C)C)c(=O)c23)c(OC)c1` as the compound, how does the “activity change, negative = cytotoxicity” value read?
The value was inactive: 19.3%.

For `CCN(CCCNC(=O)c1cc2c(-c3cccc(OC)c3)nn(C)c2s1)Cc1ccccc1`, which “activity change, negative = cytotoxicity” value is on record?
The value was inactive: 0%.

With `CCC(=NN=C(CC)c1ccccc1O)c1ccccc1O` as the compound, how does the Potency read?
The Potency was inconclusive: 20.6 µM [cytotoxic, partial curve, poor fit].

For `CCOC(=O)N1CCN(C(=O)CN(c2ccc(OC)cc2)S(C)(=O)=O)CC1`, which Potency is on record?
The Potency was inconclusive: 13 µM [cytotoxic, partial curve].

With `Cc1cc(C(=O)Nc2nc3c(s2)CCCC3)no1` as the compound, how does the Potency read?
The Potency was active: 16.4 µM.

With `O=C(NCc1cccnc1)C1CCN(S(=O)(=O)c2cccs2)CC1` as the compound, how does the Potency read?
The Potency was inconclusive: 17.8 µM [rising, partial curve, poor fit].

With `CCCN(C(=O)COC(=O)CNS(=O)(=O)c1ccc(NC(C)=O)cc1)C1CCS(=O)(=O)C1` (centres undefined) as the compound, how does the Potency read?
Its Potency is inconclusive: 20.6 µM [rising, single point].

Which Potency does the source give for `CC(=O)c1ccc(N2CCN(C(=O)CCCn3c(=O)[nH]c4ccsc4c3=O)CC2)cc1` here?
Its Potency is inconclusive: 2.31 µM [rising, full curve, poor fit].

With `O=C(CSc1nnnn1-c1ccccc1)Nc1nc(-c2ccccc2)ns1` as the compound, how does the Potency read?
Its Potency is inconclusive: 13 µM [rising, partial curve, poor fit].

For `COc1ccc(-n2c(=S)[nH]c3cc(C(=O)NCCCN4CCCC4=O)ccc3c2=O)c(OC)c1`, which “activity change, negative = cytotoxicity” value is on record?
The value was inactive: 0%.

With `Cn1c(C(=O)NCc2cccc(Cl)c2)cc2oc3ccccc3c21` as the compound, how does the “activity change, negative = cytotoxicity” value read?
Its value is inactive: -21.7%.

For `Cc1nc2cc(Cl)c(Cl)cc2n1CCCO`, which “activity change, negative = cytotoxicity” value is on record?
Its value is inactive: 17.9%.

With `C=C(C)[C@@H]1CC[C@]2(C(=O)O)CC[C@]3(C)[C@H](CC[C@@H]4[C@@]5(C)CC[C@H](O)C(C)(C)[C@@H]5CC[C@]43C)[C@@H]12` as the compound, how does the “activity change, negative = cytotoxicity” value read?
The value was inactive: -13.5%.

For `COc1ccc(CNc2nnnn2C)cc1`, which Potency is on record?
Its Potency is inconclusive: 29.1 µM [rising, single point].

Which “activity change, negative = cytotoxicity” value does the source give for `C/C(=N\NC(=O)CSc1nc2ccccc2o1)c1cccc(O)c1` here?
Its value is inactive: 19.1%.

With `CCOC(=O)/C=C1\SCC(=O)N1CC(=O)NCc1cccc(Cl)c1` as the compound, how does the Potency read?
Its Potency is inconclusive: 20.6 µM [rising, single point].

Which Potency does the source give for `COC(=O)Cn1c(CN(C)Cc2ccccc2)nc2c1c(=O)n(C)c(=O)n2C` here?
The Potency was inconclusive: 29.1 µM [rising, single point].

With `Cc1nn(CC(=O)NCc2ccc(N(C)C)cc2)c(=O)c2nn(-c3ccccc3)c(C)c12` as the compound, how does the Potency read?
The Potency was inconclusive: 29.1 µM [rising, single point].

With `CC(=O)Nc1ccc(OC(=O)Oc2ccc(NC(C)=O)cc2)cc1` as the compound, how does the Potency read?
Its Potency is inconclusive: 0.0065 µM [rising, full curve, poor fit].

For `Cc1ccc(CS(=O)(=O)c2ncc(Cl)c(C(=O)Nc3ccc(OC(F)F)cc3)n2)cc1`, which Potency is on record?
Its Potency is active: 18.4 µM.

For `CC1CCCN(C2(O)C(=O)Nc3ccc(Cl)cc32)C1` (centres undefined), which “activity change, negative = cytotoxicity” value is on record?
The value was inactive: 0%.

With `O=C(c1cc(S(=O)(=O)N2CCOCC2)c(Cl)cc1Cl)N1CCN(S(=O)(=O)c2cccc(F)c2)CC1` as the compound, how does the “activity change, negative = cytotoxicity” value read?
The value was inactive: -14.8%.

Which Potency does the source give for `COc1ccc(N=Nc2c(C)n[nH]c2C)cc1` here?
The Potency was inconclusive: 18.4 µM [cytotoxic, single point].

Which “activity change, negative = cytotoxicity” value does the source give for `CN(CC(=O)NCc1ccc(F)cc1)S(=O)(=O)c1cccc2nsnc12` here?
The value was inactive: -9.68%.

With `Cn1c(=O)n(C)c2cc(NC(=O)COc3ccc(Cl)cc3)ccc21` as the compound, how does the Potency read?
The Potency was inconclusive: 16.4 µM [cytotoxic, partial curve, poor fit].

For `CCc1ccccc1-n1nnnc1-c1cnccc1C(F)(F)F`, which “activity change, negative = cytotoxicity” value is on record?
The value was inactive: -27.7%.

With `COc1ccc2c(c1)CCc1cnc(N)nc1-2` as the compound, how does the Potency read?
The Potency was inconclusive: 18.4 µM [cytotoxic, single point].

With `Nc1nc(Cl)cc(-c2ccccc2)n1` as the compound, how does the Potency read?
Its Potency is inconclusive: 29.1 µM [rising, single point].

Which Potency does the source give for `O=C(N[C@H]1CCC(=O)N([C@H](CSc2ccccc2)Cc2ccccc2)CC1)OCc1ccccc1` here?
Its Potency is active: 18.4 µM.

Which Potency does the source give for `COc1ccc(CNC(=O)C2CCCN2S(=O)(=O)c2ccccc2)cc1` (centres undefined) here?
Its Potency is inconclusive: 25.9 µM [cytotoxic, single point].

With `C=CCOc1ccc(CN(C)CC(O)COc2ccc(CCC(C)=O)cc2)cc1` (centres undefined) as the compound, how does the Potency read?
Its Potency is inconclusive: 4.61 µM [cytotoxic, partial curve].

Which “activity change, negative = cytotoxicity” value does the source give for `Cc1ccc(CNC(=O)Cn2c3ncccc3c(=O)n2-c2ccc(C)cc2)cc1` here?
The value was inactive: -4.8%.

Which Potency does the source give for `COc1ccc2[nH]c3c(c2c1)CCNC3=O` here?
The Potency was inconclusive: 23.1 µM [cytotoxic, partial curve, poor fit].

For `COc1ccc(NC(=O)CSc2nnc(COc3ccccc3)n2Cc2ccco2)cc1OC`, which Potency is on record?
The Potency was inconclusive: 13 µM [cytotoxic, partial curve].

With `O=[N+]([O-])c1cc(C(F)(F)F)c(Cl)cc1N1CCN(CCO)CC1` as the compound, how does the Potency read?
The Potency was inconclusive: 20.6 µM [rising, single point].

For `COc1ccc(C(C)=O)cc1CN1C(=O)NC2(CCCCCC2)C1=O`, which Potency is on record?
Its Potency is inconclusive: 15.8 µM [cytotoxic, partial curve, poor fit].

Which Potency does the source give for `CCOc1ccc(N=c2scc(-c3ccccc3)n2CCO)cc1` here?
The Potency was inconclusive: 16.4 µM [cytotoxic, single point].

With `CC(=O)N1N=C2c3ccccc3CCC2C1c1cccs1` (centres undefined) as the compound, how does the “activity change, negative = cytotoxicity” value read?
The value was inactive: 2.97%.

For `N/N=C(\Cc1cscn1)c1ccc(O)cc1O`, which Potency is on record?
Its Potency is inconclusive: 0.0326 µM [rising, full curve].

Which “activity change, negative = cytotoxicity” value does the source give for `Cc1ccc(S(=O)(=O)N2CCN(C(=O)c3ccccn3)CC2)c(C)c1` here?
The value was inactive: -21.9%.

With `CN(C)CCN(Cc1ccccc1)C(=O)[C@H](Cc1ccccc1)N1C(=O)c2ccccc2C1=O` as the compound, how does the Potency read?
The Potency was inconclusive: 0.0065 µM [rising, full curve, poor fit].

With `CCSc1ccc(C(=O)Nc2cccc(C)n2)cc1[N+](=O)[O-]` as the compound, how does the Potency read?
Its Potency is inconclusive: 3.26 µM [cytotoxic, full curve, poor fit].

Which Potency does the source give for `COC(=O)c1sccc1NC(=O)CSc1ccccc1NS(=O)(=O)c1ccc(F)cc1` here?
Its Potency is inconclusive: 20.6 µM [cytotoxic, partial curve].

With `COc1ccc(-c2csc(NC(=O)CSc3nc(SC)ns3)n2)cc1` as the compound, how does the “activity change, negative = cytotoxicity” value read?
The value was inactive: 0.555%.

With `COc1ccc(C(=O)NC(=S)Nc2ccc(CN3CCOCC3)cc2)cc1Br` as the compound, how does the Potency read?
Its Potency is inconclusive: 0.0082 µM [cytotoxic, full curve, poor fit].

Which Potency does the source give for `CCOC(=O)C(C(=O)OCC)C(Nc1cccc(Br)c1)c1ccccc1` (centres undefined) here?
The Potency was inconclusive: 18.4 µM [cytotoxic, single point].

With `CCC(C)C(CO)NCCCn1cnc2c(OCc3ccccc3)ncnc21` (centres undefined) as the compound, how does the Potency read?
The Potency was inconclusive: 6.51 µM [rising, partial curve, poor fit].

Which Potency does the source give for `Cc1nc2c(c(C)nn2C(C)(C)C)c(C)c1CCC(=O)Nc1ccc(F)cc1` here?
Its Potency is inconclusive: 3.26 µM [cytotoxic, partial curve, poor fit].

For `CCCn1c(=O)c2sccc2n2c(CCCC(=O)NC3CCN(Cc4ccccc4)CC3)nnc12`, which “activity change, negative = cytotoxicity” value is on record?
Its value is inactive: 0%.

For `COc1ccc(CNC(=O)c2ccc(Cl)c(S(=O)(=O)N3CCCCCC3)c2)cc1`, which Potency is on record?
Its Potency is inconclusive: 29.1 µM [cytotoxic, single point].

With `O=C(CCc1nnc2ccc(NCc3ccco3)nn12)N1CCN(c2ccccc2F)CC1` as the compound, how does the Potency read?
The Potency was inconclusive: 29.1 µM [rising, single point].

Which “activity change, negative = cytotoxicity” value does the source give for `O=C(COC(=O)CCc1c[nH]c2ccccc12)Nc1ccccc1` here?
The value was inactive: 0%.

For `COc1ccc(/C=N/N(Cc2ccccc2)c2ccccc2)cc1O`, which Potency is on record?
The Potency was inconclusive: 25.9 µM [cytotoxic, single point].

With `COCCn1c(C)cc(C(=O)COC(=O)c2ccc3ncsc3c2)c1C` as the compound, how does the activity change, negative = cytotoxicity read?
The activity change, negative = cytotoxicity was inconclusive: -37.3% [cytotoxic].

For `COc1ccc(C(=O)COC(=O)CNC(=O)C2CCCCC2)c(OC)c1`, which Potency is on record?
The Potency was inconclusive: 18.4 µM [rising, single point].

With `NC(=O)c1cc([N+](=O)[O-])ccc1NCCc1ccccc1` as the compound, how does the Potency read?
Its Potency is inconclusive: 11.6 µM [cytotoxic, partial curve].

For `O=C(NC1CCN(C(=O)NC2CCCCC2)CC1)c1cccc(F)c1`, which Potency is on record?
Its Potency is inconclusive: 18.4 µM [cytotoxic, single point].

For `NC(=O)c1c(NC(=O)Cn2nc(C(=O)O)c3ccccc3c2=O)sc2c1CCCC2`, which “activity change, negative = cytotoxicity” value is on record?
The value was inactive: 1.09%.

For `Cc1onc(-c2ccccc2)c1C(=O)Nc1nc2c(s1)CCCC2`, which Potency is on record?
The Potency was inconclusive: 23.1 µM [cytotoxic, single point].
